This assay addresses GST-karyopherin β (GST-KPNB) (porcine) (UniProt F1RWJ5). The assay is described as follows: pull-down; 10 µg GST protein, glutathione agarose beads and reticulocyte lysate with 35S-labelled KPNA; 50 mM Tris-HCl, 150 mM NaCl, 5 mM EGTA, 1% Triton X-100, pH 7.3, 2 h at 4°C; three PBS washes; autoradiography; only the target purified.

The chains behind the UniProt entries cited, without tags or fusion partners. Where a name states a change or a piece, a line headed by the entry shows the natural chain unless it says otherwise. A line that says so, or that is headed by a name, gives the form on record, which may keep a tag or linker.
GST-karyopherin β (GST-KPNB) (F1RWJ5, form named): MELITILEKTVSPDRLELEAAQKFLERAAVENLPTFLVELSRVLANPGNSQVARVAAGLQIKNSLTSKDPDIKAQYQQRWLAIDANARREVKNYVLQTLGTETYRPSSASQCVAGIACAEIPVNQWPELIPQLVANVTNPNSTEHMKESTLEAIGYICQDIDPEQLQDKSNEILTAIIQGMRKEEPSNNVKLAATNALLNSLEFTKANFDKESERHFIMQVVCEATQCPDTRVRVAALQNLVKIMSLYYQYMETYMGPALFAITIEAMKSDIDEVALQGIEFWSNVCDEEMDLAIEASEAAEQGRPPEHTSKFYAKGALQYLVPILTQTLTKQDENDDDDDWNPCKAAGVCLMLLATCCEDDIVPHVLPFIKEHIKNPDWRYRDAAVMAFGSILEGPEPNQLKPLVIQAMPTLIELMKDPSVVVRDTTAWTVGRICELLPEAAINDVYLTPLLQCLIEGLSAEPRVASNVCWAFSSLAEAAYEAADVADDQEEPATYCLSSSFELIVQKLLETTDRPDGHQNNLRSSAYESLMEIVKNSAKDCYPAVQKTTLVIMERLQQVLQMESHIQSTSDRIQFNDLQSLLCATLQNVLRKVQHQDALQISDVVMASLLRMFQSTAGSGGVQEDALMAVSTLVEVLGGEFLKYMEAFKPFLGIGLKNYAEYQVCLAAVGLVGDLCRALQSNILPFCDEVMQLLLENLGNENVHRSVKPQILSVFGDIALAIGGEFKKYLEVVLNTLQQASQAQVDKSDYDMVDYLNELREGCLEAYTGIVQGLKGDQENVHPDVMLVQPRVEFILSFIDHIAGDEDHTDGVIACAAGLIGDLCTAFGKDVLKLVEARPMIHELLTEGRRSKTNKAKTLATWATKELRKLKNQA
UniProt C6K7I2: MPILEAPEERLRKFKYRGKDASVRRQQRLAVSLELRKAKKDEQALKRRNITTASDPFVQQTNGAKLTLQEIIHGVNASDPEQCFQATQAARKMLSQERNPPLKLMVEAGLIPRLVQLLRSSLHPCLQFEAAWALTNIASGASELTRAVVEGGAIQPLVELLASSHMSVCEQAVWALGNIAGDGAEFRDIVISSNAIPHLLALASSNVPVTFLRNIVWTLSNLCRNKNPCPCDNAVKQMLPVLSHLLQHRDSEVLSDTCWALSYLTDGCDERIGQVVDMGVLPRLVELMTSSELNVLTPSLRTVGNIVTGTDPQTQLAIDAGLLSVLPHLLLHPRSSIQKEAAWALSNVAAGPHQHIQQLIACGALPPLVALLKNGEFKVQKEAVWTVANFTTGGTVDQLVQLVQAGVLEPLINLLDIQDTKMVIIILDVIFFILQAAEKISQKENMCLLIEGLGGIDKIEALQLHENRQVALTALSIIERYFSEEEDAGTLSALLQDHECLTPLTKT
S35-labeled porcine KPNA1 (from the GFP-tagged vector) (A0ACM8QJN5, form named): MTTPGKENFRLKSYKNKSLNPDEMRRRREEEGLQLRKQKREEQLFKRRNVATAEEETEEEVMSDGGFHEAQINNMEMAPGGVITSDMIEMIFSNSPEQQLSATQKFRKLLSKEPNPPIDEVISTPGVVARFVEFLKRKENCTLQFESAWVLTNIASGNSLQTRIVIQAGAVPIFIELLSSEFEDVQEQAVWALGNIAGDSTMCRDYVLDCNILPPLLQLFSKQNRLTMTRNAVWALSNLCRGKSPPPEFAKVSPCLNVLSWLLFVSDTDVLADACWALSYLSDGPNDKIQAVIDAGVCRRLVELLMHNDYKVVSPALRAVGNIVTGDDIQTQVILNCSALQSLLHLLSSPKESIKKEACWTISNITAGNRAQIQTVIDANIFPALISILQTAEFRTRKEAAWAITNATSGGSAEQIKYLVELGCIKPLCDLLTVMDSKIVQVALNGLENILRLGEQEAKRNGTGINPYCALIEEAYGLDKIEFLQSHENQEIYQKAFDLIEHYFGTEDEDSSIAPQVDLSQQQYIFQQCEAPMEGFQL

Results are given in words; binding and its absence hold for the method and conditions named. Binding seen in cells or lysates may run through a third protein. Some binding calls cover weakened binding; strength is not graded here.

Regarding “S35-labeled porcine KPNA7 (from the GFP-tagged vector) (from UniProt C6K7I2 1-507)”, the binding entry is given as “binds”.

On to “S35-labeled porcine KPNA1 (from the GFP-tagged vector) (from UniProt A0ACM8QJN5 1-538)”, for which the binding result is “binds”.

For the origin of these results see PMC3374799.
